According to US11874276B2, “STING levels as a biomarker for cancer immunotherapy” (Dana-Farber Cancer Institute, Inc., priority 2018, dated 2024):
At least one structure is not confirmed: it was looked up by name or label, or the drawing left a doubt.

Tested on: H69AR cells
Experiment: IFNγ pulsed H69AR cells chased in media with drug; pSTAT1 immunoblot, CXCL10/ERV qRT-PCR, CXCL10 ELISA
Assay type: cell-based, human
Conditions: 10 min IFNγ pulse, 24 h chase, 100 nM
Method: For IFN pulse experiments, cells were pulsed 10 minutes with IFN-γ 200 ng/mL or 10 ng/mL), IFN-α 10 000 U/mL), or IFN-β 10 000 U/mL), extensively washed, and chased in fresh media for an additional 24, 48 or 72 hours. To test drug effects on gene expression or protein secretion, IFN-γ pulsed H69AR cells were treated with DMSO, 1 μM MRT67307 or 100 nM Ruxolitinib for 24, 48 and 72 hours. Proteome Profiler™ Human Cytokine Array Kit (#ARY005B) and CXCL10 ELISA (#DIP100) (R&D Systems, Minneapolis, MN), were performed according to manufacturer's instructions. For cytokine array, conditioned media (CM) from SCLC cells at basal conditions was collected after 48 and 72 hours. For CXCL10 ELISA, CM from IFN-γ pulsed cells was collected after 72 hours. Total cellular RNA was extracted using the miRNeasy Mini Kit (Qiagen, Hilden, Germany) according to manufacturer's instructions. After extraction, 1 μg total RNA was used to generate cDNA with the SuperScript III First-Strand Synthesis SuperMix for qRT-PCR kit (Thermo Fisher Scientific, Waltham, MA). Quantitative reverse transcription PCR (qRT-PCR) of the indicated genes was performed using SYBR green PCR Master Mix (Applied Biosystems, Foster City, CA) and the Applied Biosystems 7300 Fast real-time PCR system and software. The relative expression was normalized with the expression of the housekeeping gene 36B4.

Question: `N#CC[C@H](C1CCCC1)n1cc(-c2ncnc3[nH]ccc23)cn1` [Ruxolitinib] was tested. Which “effect on IFNγ-induced positive feedback circuit (pSTAT1, CXCL10, ERV expression)” value did it give?
Answer: The value was “disrupted this circuit”.
